Assay results taken from patent publication US20250172540A1, “Methods And Systems For Quantifying Partitioning Of Agents In Vivo Based On Partitioning Of Agents In Vitro” (Whitehead Institute for Biomedical Research, priority 2022, published 2025).
“Also recorded” adds a separate entry of the source. Some entries repeat one wording, which the source may state once for all of them.

Each molecule was assayed on HCT-116 cells (assay: Live cell confocal / two-photon imaging of endogenously fluorescent drugs). Conditions: live HCT-116 cells, 50 μM, 1 hour, confocal or two-photon imaging.
Assay type: cell-based, Human

SMILES	subcellular distribution of the drug's fluorescent signal
Nc1ccc2cc3ccc(N)cc3nc2c1 [proflavine]	concentrated almost exclusively in the nucleus
Cc1ccc(C(=O)Nc2ccc(S(=O)(=O)O)c3cc(S(=O)(=O)O)cc(S(=O)(=O)O)c23)cc1NC(=O)c1cccc(NC(=O)Nc2cccc(C(=O)Nc3cc(C(=O)Nc4ccc(S(=O)(=O)O)c5cc(S(=O)(=O)O)cc(S(=O)(=O)O)c45)ccc3C)c2)c1 [suramin]	concentrated predominantly in the cytoplasm
COc1ccc2cc3[n+](cc2c1OC)CCc1cc2c(cc1-3)OCO2 [Berberine]	concentrated predominantly in mitochondria
CC[C@@]1(O)C(=O)OCc2c1cc1n(c2=O)Cc2cc3ccccc3nc2-1 [camptothecin]	concentrated almost exclusively in the nucleus
CC(C)c1ccc2oc3nc(N)c(C(=O)O)cc3c(=O)c2c1 [amlexanox]	concentrated predominantly in the cytoplasm
CC[C@@]1(O)C(=O)OCc2c1cc1n(c2=O)Cc2cc3c(CN(C)C)c(O)ccc3nc2-1 [topotecan]	concentrated almost exclusively in the nucleus; also recorded: much of its fluorescent signal occurred in the nucleus
Nc1nc(N)c2nc(-c3ccccc3)c(N)nc2n1 [triamterene]	concentrated predominantly in the cytoplasm
C[C@]1(O)C[C@@H](c2nc(-c3ccc4ccc(-c5ccccc5)nc4c3)c3c(N)nccn32)C1 [linsitinib]	concentrated predominantly in the cytoplasm
